Laboratory results as given in publication PMC5321737.
These are yes or no findings as the source states them, for the method shown. Binding seen in cells or lysates may run through a third protein. Some binding calls cover weakened binding; strength is not graded here.

Chains of the proteins cited; added tags and fusions are not shown. Lines headed by an entry give the natural chain unless they say otherwise; changes in a name come on top. A line that says so, or that is headed by a name, gives the form on record, which may keep a tag or linker.
UniProt P84022: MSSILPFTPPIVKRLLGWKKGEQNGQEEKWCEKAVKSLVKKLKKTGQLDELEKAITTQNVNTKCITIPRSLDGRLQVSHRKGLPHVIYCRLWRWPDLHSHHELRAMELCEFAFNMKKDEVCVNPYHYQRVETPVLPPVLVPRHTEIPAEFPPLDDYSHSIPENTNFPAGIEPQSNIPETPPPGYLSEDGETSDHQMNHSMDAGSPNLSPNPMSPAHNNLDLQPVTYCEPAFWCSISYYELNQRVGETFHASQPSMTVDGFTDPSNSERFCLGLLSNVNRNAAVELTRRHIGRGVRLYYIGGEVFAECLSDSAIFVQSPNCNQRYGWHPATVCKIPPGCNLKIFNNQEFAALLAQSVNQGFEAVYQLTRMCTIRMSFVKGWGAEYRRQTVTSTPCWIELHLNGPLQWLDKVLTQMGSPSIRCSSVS
Flag SMAD3-K3R expressed from lentivirus in calvarial osteoblasts (P84022, form named): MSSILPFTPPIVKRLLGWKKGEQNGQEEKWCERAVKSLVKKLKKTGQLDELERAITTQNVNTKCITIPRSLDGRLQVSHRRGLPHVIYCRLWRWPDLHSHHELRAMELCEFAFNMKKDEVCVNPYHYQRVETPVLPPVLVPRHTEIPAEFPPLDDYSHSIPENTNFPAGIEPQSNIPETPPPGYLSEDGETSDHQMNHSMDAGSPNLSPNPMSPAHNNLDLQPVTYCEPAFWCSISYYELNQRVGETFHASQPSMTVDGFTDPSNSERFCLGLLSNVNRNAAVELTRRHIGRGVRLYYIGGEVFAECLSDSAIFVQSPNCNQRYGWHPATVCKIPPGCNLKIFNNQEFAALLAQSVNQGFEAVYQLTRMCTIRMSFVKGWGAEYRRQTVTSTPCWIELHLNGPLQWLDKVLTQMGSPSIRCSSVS
UniProt Q8BUN5: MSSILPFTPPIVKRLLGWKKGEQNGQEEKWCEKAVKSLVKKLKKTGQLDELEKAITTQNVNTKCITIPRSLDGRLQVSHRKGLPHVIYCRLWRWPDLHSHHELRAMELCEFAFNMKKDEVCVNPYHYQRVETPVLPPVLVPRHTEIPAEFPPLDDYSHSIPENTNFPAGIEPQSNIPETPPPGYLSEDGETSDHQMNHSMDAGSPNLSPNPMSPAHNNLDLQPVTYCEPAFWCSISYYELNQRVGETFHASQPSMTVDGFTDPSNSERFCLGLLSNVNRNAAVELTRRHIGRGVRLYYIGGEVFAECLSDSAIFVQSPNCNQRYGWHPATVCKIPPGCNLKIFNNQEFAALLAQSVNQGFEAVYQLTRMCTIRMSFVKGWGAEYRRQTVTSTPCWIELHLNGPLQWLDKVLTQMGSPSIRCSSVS

Columns and labels:
[1] = target: Flag SMAD3 expressed from lentivirus in calvarial osteoblasts (UniProt P84022); assay: co-IP; Flag SMAD3 or SMAD3-K3R from lentivirus in calvarial osteoblast cells; endogenous VDR co-immunoprecipitated
[2] = target: Flag SMAD3-K3R expressed from lentivirus in calvarial osteoblasts (UniProt P84022); assay: as above
[3] = target: endogenous SMAD3 (mouse (endogenous in calvarial osteoblasts)) (UniProt Q8BUN5); assay: co-IP; endogenous VDR and SMAD3 in calvarial osteoblasts

Measured: binding

B1: endogenous VDR (vitamin D receptor) (protein, UniProt P48281 1-422)
chain: MEAMAASTSLPDPGDFDRNVPRICGVCGDRATGFHFNAMTCEGCKGFFRRSMKRKALFTCPFNGDCRITKDNRRHCQACRLKRCVDIGMMKEFILTDEEVQRKREMIMKRKEEEALKDSLRPKLSEEQQHIIAILLDAHHKTYDPTYADFRDFRPPIRADVSTGSYSPRPTLSFSGDSSSNSDLYTPSLDMMEPASFSTMDLNEEGSDDPSVTLDLSPLSMLPHLADLVSYSIQKVIGFAKMIPGFRDLTSDDQIVLLKSSAIEVIMLRSNQSFTLDDMSWDCGSQDYKYDITDVSRAGHTLELIEPLIKFQVGLKKLNLHEEEHVLLMAICIVSPDRPGVQDAKLVEAIQDRLSNTLQTYIRCRHPPPGSHQLYAKMIQKLADLRSLNEEHSKQYRSLSFQPENSMKLTPLVLEVFGNEIS
binds: all assays above
